Measurements as given in PMC6794829.
Protein sequences can lack the tags named with them.

What was measured:
[1] = test system: T1, HcdR2 (LuxR family regulator) (Streptomyces mobaraensis US-43); experiment: competition with a labelled probe; conditions: 200-fold excess unlabeled vs biotin hcdT-2p, 400 nM HcdR2; EMSA: 10 mM Tris-HCl, 50 mM KCl, 1 mM DTT, pH 7.5 (1x of 10x buffer), 20 fmol probe in 20 uL, 25-2000 nM protein, room temperature 20 min; native 5% gel, 0.5x TBE, 4 C; recombinant protein; residues 1-930; protein details: N-terminal His10 (pET-16b); label: none (unlabeled competitor); probe letters rebuilt from the primers and the genome
T1 sequence (looked up): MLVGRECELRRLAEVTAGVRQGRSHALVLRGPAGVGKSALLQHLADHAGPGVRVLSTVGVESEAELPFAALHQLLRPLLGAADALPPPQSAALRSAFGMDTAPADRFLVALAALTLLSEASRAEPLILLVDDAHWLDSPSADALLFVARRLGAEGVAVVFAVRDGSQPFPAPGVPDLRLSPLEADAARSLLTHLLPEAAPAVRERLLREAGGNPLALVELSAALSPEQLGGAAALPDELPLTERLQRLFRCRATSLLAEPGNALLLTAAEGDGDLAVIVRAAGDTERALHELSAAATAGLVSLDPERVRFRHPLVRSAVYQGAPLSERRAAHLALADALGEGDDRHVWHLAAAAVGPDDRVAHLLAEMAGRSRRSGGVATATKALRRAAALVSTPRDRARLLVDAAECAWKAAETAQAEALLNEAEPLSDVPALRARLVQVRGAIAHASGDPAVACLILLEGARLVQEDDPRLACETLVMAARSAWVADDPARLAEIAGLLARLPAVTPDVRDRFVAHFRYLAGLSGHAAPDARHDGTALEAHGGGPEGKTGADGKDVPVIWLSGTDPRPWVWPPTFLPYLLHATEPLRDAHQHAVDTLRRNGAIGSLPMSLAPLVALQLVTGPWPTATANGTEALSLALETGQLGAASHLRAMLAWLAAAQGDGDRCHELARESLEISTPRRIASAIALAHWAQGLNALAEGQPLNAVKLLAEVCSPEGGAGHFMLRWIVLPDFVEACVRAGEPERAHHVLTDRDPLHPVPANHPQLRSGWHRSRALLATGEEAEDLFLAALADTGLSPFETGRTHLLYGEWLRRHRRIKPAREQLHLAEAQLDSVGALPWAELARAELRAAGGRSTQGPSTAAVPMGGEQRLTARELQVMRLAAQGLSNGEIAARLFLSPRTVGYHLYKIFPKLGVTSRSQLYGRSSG

[2] = test system: T1, HcdR2 (LuxR family regulator) (Streptomyces mobaraensis US-43); experiment: EMSA; conditions: shift decreased by 200-fold unlabeled specific competitor; EMSA: 10 mM Tris-HCl, 50 mM KCl, 1 mM DTT, pH 7.5 (1x of 10x buffer), 20 fmol probe in 20 uL, 25-2000 nM protein, room temperature 20 min; native 5% gel, 0.5x TBE, 4 C; recombinant protein; residues 1-930; protein details: N-terminal His10 (pET-16b); label: 5' biotin; probe letters rebuilt from the primers and the genome

Sequence	binding result [1]	binding result [2]
CATGAAGGCCGGCACTTTGGCCTGGGCGGACGCGGACCGGCGGGACTCCTGAGGGGCGCGAGCTGCGTAGGGGCTCATAGGGGTTGTAGGGGATGAAGTTCATCCTCCCCTCTTCGTAGGATGGCTTTGCCCGAGGGAACACGGAAAGGCGGCGTACCGGAAGCCGCGAACCACCAGGGGCGGCGGATTCTCCGAATTCGCCCGTCCGTCATGTGTTCCGCCCTCGGCTTCGCACTGTCCTGGAAGGGGACACGAGGAGCGAATCTCTGCCAGCGCTGAGGGCCCAGGGAGGTCTTGTATGCCGGTCGGTGTCTTAGGGGTTGGAT (double strand) [her3p]	binds	
CGATGCTCCTTTCCCTGGGCGCACTCTGTCATATGACAGATACATTCACTGATCAATCCGCTCTTATCCGGCCAGGATTGACGCACTTCCTCCGGTTACCTGATCGCCGGCCCCCGTCGAGCGACAGATGCCCGACCGTCCGGGGCTGCCGGAAGGTTGCTGTCGCGGCAGGCCCCCAGAGGCGGCACCACGCTCGGGGCACCGCCGCCACAGGACCGTTCTCACGAGGAATGCACGCCTGGCGTGGGTGGATATATGTCGTTGTCTGATGTTGCTTCGAGTCGCGTGTCCGCCGGCGAGGGA (double strand) [hcdR2-Bp]		binds
GCGCCGTCGCGCATCGTCAAGCCGTGGGCTACGGTAATACGAGCGAAGCTCGCGCGCCGGATGCCGAAGCGCGGGCCCGCAGACGCCCATCCGCAGGTGACGACACGAGCATCGCGCCGCATCGAGCCGGCCGTGAACCGCGACTCCGTTGCTTTCCCCCTTACTTCCGGACCGGATGGGCCACCTCTGCCCCGCCGCGTGGGCACGGCCCGACTCACCACTGTGGACAGCTCGTTCTTGAGGACTCGGGGGTGGGTGACGATCGCGACCGACCGGCCGCTCGACGGGGCCCGCTCCGAGCAACCGGCAGCGTGGAGCCGCCGTGCGGTGTCCGCTTCCTCCTGTGACGTCGAGCCGATCACCATTCCTCGTGCGTGCGGCAGACAGTGCTGCTGCGACGGCGCCTCCTTCTGAGGTTGCCCGGCTCCCACTGTCCGCGTCCGCGCCTCGAAGGAACTTCCATGGCATCCACAGTG (double strand) [hcdT-2p]		binds
